In the supplement of paper PMC12823440, “Inhibitors supercharge kinase turnover through native proteolytic circuits” (Nature, 2025):
Counter-ions that a name gives are not always drawn. This is one part of the list. The calls rarely recur for the same compound in another form.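 In K562 cells expressing nanoluciferase-fused kinases, luminescence was recorded at 4 h intervals between 2 and 18 h, normalized as percent of control with DMSO at 100% and a positive control at 0%. A significant (2 sigma) signal drop marks a time point as decreased. The authors' rule for a hit is not shown and takes in more than the number of time points.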

By UniProt entry, the sequences of proteins in these tests, tags left out. Where a name states a change or a piece, a line headed by the entry shows the natural chain unless it says otherwise.
UniProt P06241, whole entry, looked up: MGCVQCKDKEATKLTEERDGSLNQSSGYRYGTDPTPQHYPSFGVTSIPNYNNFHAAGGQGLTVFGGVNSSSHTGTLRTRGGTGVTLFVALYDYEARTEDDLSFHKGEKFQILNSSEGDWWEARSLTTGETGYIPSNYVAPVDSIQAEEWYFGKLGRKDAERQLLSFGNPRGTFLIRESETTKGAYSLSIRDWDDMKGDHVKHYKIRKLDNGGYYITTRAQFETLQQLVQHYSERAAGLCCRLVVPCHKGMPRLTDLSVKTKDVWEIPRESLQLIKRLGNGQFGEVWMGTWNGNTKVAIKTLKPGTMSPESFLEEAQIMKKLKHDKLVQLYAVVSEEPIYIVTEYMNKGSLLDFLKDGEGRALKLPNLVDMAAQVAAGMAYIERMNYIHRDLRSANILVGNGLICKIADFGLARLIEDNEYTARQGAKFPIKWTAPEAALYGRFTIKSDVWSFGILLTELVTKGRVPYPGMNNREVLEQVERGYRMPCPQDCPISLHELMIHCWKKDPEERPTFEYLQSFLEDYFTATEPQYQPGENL
UniProt P49840: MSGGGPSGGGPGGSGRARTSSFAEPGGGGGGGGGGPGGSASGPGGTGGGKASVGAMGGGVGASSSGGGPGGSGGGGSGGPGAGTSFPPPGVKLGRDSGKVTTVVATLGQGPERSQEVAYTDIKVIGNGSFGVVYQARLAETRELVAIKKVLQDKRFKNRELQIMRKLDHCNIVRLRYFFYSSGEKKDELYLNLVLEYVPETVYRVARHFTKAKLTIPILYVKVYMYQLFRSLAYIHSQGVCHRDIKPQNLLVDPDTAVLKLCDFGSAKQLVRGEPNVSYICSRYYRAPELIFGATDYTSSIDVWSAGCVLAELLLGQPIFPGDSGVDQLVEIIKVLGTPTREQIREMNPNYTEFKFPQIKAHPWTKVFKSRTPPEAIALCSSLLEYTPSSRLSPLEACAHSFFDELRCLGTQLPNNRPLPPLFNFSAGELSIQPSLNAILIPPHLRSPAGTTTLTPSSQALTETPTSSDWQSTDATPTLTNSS

target: FYN (UniProt P06241); assay: kinase-Nluc reporter destabilization hit call (1 = scored as downregulated) (binary); higher = compound decreases kinase abundance; settings: K562; 2-18 h

kinase-Nluc reporter destabilization hit call, inactive:
Cn1c(N2CCO[C@@H](c3ccc(F)cc3)C2)nc(-c2ccncn2)cc1=O (10 µM) 0
COc1ccc(CN2CCC(c3ccc4nc(C(=O)N5CCN(Cc6ccc(C(F)(F)F)cc6)CC5)[nH]c4c3)CC2)cn1 (2.5 µM) 0
O=C(O)c1c[nH]c2cc(Cl)c(-c3ccc(C4(O)CCC4)cc3)cc12 (10 µM) 0
CC(C)(Oc1ccc(Cl)cc1)C(=O)Nc1ccc(OCc2ccc(C#N)cc2)cc1 [AMPK activator 4] (10 µM) 0
O=C(NCc1ccn[nH]1)c1cc([C@@H]2CCNC[C@H]2COc2ccc3c(c2)OCO3)ccc1F [GRK2-IN-1 (hydrochloride)] (10 µM) 0
Cc1cnc(Cl)nc1-c1ccc(N(Cc2ccc(CNC(=O)C(F)F)cc2)C(=O)c2ccc(O)cc2O)cc1 (10 µM) 0
CC1=C(C#N)C(c2ccc3[nH]nc(C)c3c2)C(C#N)=C(C)N1 (10 µM) 0
CN(C[C@@H]1COCCO1)S(=O)(=O)Nc1ccc2ccc3ncc(-c4cnn(C)c4)cc3c(=O)c2c1 (2.5 µM) 0
CC(=O)Nc1nc(C)c(-c2cc(C)c3c(c2)CN([C@@H](C)C2CC2)C3=O)s1 (10 µM) 0
O=C(Nc1ccccc1C(=O)NC1CCCCNC1=O)c1cc2ccccc2s1 (configuration not stated) (10 µM) 0
CO[C@]1(C(=O)N[C@@H](C)c2ccc(-n3cc(F)cn3)nc2)CC[C@H](c2nc(C)cc(Nc3cc(C)[nH]n3)n2)CC1 [Pralsetinib] (10 µM) 0
O=[N+]([O-])c1ccc(-c2nc(-c3ccc(F)cc3)c(-c3ccncc3)[nH]2)cc1 (10 µM) 0
CC(ONC(=O)c1cc(C(F)(F)F)cc(C(F)(F)F)c1)C(=O)Nc1ccc(Cl)cc1 (configuration not stated) (2.5 µM) 0
Cc1cncc2cccc(S(=O)(=O)N3CCCNC[C@@H]3C)c12 [H-1152 (dihydrochloride)] (10 µM) 0
Cc1nc(NC(=O)N2CCC[C@H]2C(N)=O)sc1-c1ccnc(C(C)(C)C(F)(F)F)c1 [Alpelisib] (2.5 µM) 0
CCCCNc1ncc2c(-c3ccc(F)cc3)nn(CC3CCC(N)CC3)c2n1 (configuration not stated) (2.5 µM) 0
CS(=O)(=O)c1ccc([C@@H](CC2CCCC2)C(=O)Nc2nccs2)cc1 (10 µM) 0
CO/N=C1/C(c2c(O)[nH]c3cc(Cl)c(Cl)cc23)=Nc2ccccc21 (10 µM) 0
CNCc1ccccc1Sc1cccc2ccccc12 [IFN alpha-IFNAR-IN-1 (hydrochloride)] (10 µM) 0
C=CC(=O)N1CCC(c2ccc(C(N)=O)c(-c3ccc(Oc4ccccc4)cc3)n2)CC1 [Orelabrutinib] (2.5 µM) 0
Cc1cc2c(F)c(Oc3ncnn4cc(OC[C@@H](C)OC(=O)[C@H](C)N)c(C)c34)ccc2[nH]1 [Brivanib (alaninate)] (10 µM) 0
CCC(F)(F)c1cc(N2CCC(S(C)(=O)=O)CC2)nc2sc(C(N)=O)c(N)c12 (10 µM) 0
NC(=O)c1c(NC(=O)C2CC2)sc2c1CCCC2 (10 µM) 0
CC(C)=CCC[C@](C)(O[C@@H]1O[C@H](CO[C@@H]2O[C@H](CO)[C@@H](O)[C@H](O)[C@H]2O)[C@@H](O)[C@H](O)[C@H]1O)[C@H]1CC[C@]2(C)[C@@H]1[C@H](O)C[C@@H]1[C@@]3(C)CC[C@H](O[C@@H]4O[C@H](CO)[C@@H](O)[C@H](O)[C@H]4O[C@@H]4O[C@H](CO)[C@@H](O)[C@H](O)[C@H]4O)C(C)(C)[C@@H]3CC[C@]12C [Ginsenoside Rb1] (10 µM) 0
COc1cccc(-c2cc(=O)c3ccccc3o2)c1N (10 µM) 0
C[C@@H]1COC(Nc2ccc3ncnc(Nc4ccc(OCc5nccs5)c(Cl)c4)c3c2)=N1 [Varlitinib] (10 µM) 0
Cc1nc(Nc2cnn(C3CCNCC3)c2)nc2c1N(C)C(=O)c1cc3ccccc3cc1N2C (2.5 µM) 0

target: GSK3A (UniProt P49840); assay: as above; settings: K562; 2-18 h

kinase-Nluc reporter destabilization hit call, inactive:
O=c1cc(-c2ccc(O[C@@H]3O[C@H](CO)[C@@H](O)[C@H](O)[C@H]3O)cc2)oc2cc(O)c([C@@H]3O[C@H](CO)[C@@H](O)[C@H](O)[C@H]3O[C@@H]3OC[C@H](O)[C@H](O)[C@H]3O)c(O)c12 [Vaccarin] (10 µM) 0
O=CN1CCN(c2ccc(C=C3C(=O)Nc4ccccc43)cc2)CC1 (10 µM) 0
COc1ccc(Cl)cc1N(CC(=O)Nc1ccc2c(c1)OCO2)S(=O)(=O)c1ccccc1 (2.5 µM) 0
CCc1c(C(=O)NNC(=O)[C@H](O)c2cc(F)cc(F)c2)ccc(O)c1C (10 µM) 0
CN(C)CCn1cc2cc(NC(=O)c3cccc(C(F)(F)F)n3)c(C(C)(C)O)cc2n1 (10 µM) 0
CCC[C@H](C)Oc1nc(N)c2[nH]c(=O)n(CCCCCN3CCCCC3)c2n1 (10 µM) 0
CCOC(=O)c1c(C)[nH]c(C=C2C(=O)Nc3ccccc32)c1C (10 µM) 0
Cc1ccc(NC(=O)N2CCN(c3nc(N)nc4sc(-c5cccnc5)nc34)CC2)cc1 [PI4KIII beta inhibitor 3] (10 µM) 0
CS[C@@]1(C(=O)Nc2ccc3[nH]nc(-c4ccc(OC(C)C)nc4)c3c2)CCN(CC(=O)N2CC=C(c3ccc(-c4ncn(C)n4)cc3)CC2)C1 (2.5 µM) 0
O=C(Nc1ccc(Cl)cc1)C1CN(C(=O)c2cccc(-c3ccco3)c2)CC(F)(F)C1 (configuration not stated) (2.5 µM) 0
Nc1ccc(Sc2nc3ccccc3s2)c(Cl)c1 [KRAS inhibitor-9] (10 µM) 0
Cn1c(N2CCO[C@@H](c3ccc(F)cc3)C2)nc(-c2ccncn2)cc1=O (10 µM) 0
COc1ccc(CN2CCC(c3ccc4nc(C(=O)N5CCN(Cc6ccc(C(F)(F)F)cc6)CC5)[nH]c4c3)CC2)cn1 (2.5 µM) 0
O=C(O)c1c[nH]c2cc(Cl)c(-c3ccc(C4(O)CCC4)cc3)cc12 (10 µM) 0
CC(C)(Oc1ccc(Cl)cc1)C(=O)Nc1ccc(OCc2ccc(C#N)cc2)cc1 [AMPK activator 4] (10 µM) 0
O=C(NCc1ccn[nH]1)c1cc([C@@H]2CCNC[C@H]2COc2ccc3c(c2)OCO3)ccc1F [GRK2-IN-1 (hydrochloride)] (10 µM) 0
Cc1cnc(Cl)nc1-c1ccc(N(Cc2ccc(CNC(=O)C(F)F)cc2)C(=O)c2ccc(O)cc2O)cc1 (10 µM) 0
CC1=C(C#N)C(c2ccc3[nH]nc(C)c3c2)C(C#N)=C(C)N1 (10 µM) 0
CN(C[C@@H]1COCCO1)S(=O)(=O)Nc1ccc2ccc3ncc(-c4cnn(C)c4)cc3c(=O)c2c1 (2.5 µM) 0
CC(=O)Nc1nc(C)c(-c2cc(C)c3c(c2)CN([C@@H](C)C2CC2)C3=O)s1 (10 µM) 0
O=C(Nc1ccccc1C(=O)NC1CCCCNC1=O)c1cc2ccccc2s1 (configuration not stated) (10 µM) 0
CO[C@]1(C(=O)N[C@@H](C)c2ccc(-n3cc(F)cn3)nc2)CC[C@H](c2nc(C)cc(Nc3cc(C)[nH]n3)n2)CC1 [Pralsetinib] (10 µM) 0
O=[N+]([O-])c1ccc(-c2nc(-c3ccc(F)cc3)c(-c3ccncc3)[nH]2)cc1 (10 µM) 0
CC(ONC(=O)c1cc(C(F)(F)F)cc(C(F)(F)F)c1)C(=O)Nc1ccc(Cl)cc1 (configuration not stated) (2.5 µM) 0
Cc1cncc2cccc(S(=O)(=O)N3CCCNC[C@@H]3C)c12 [H-1152 (dihydrochloride)] (10 µM) 0
Cc1nc(NC(=O)N2CCC[C@H]2C(N)=O)sc1-c1ccnc(C(C)(C)C(F)(F)F)c1 [Alpelisib] (2.5 µM) 0
CCCCNc1ncc2c(-c3ccc(F)cc3)nn(CC3CCC(N)CC3)c2n1 (configuration not stated) (2.5 µM) 0
CS(=O)(=O)c1ccc([C@@H](CC2CCCC2)C(=O)Nc2nccs2)cc1 (10 µM) 0
CO/N=C1/C(c2c(O)[nH]c3cc(Cl)c(Cl)cc23)=Nc2ccccc21 (10 µM) 0
CNCc1ccccc1Sc1cccc2ccccc12 [IFN alpha-IFNAR-IN-1 (hydrochloride)] (10 µM) 0
C=CC(=O)N1CCC(c2ccc(C(N)=O)c(-c3ccc(Oc4ccccc4)cc3)n2)CC1 [Orelabrutinib] (2.5 µM) 0
Cc1cc2c(F)c(Oc3ncnn4cc(OC[C@@H](C)OC(=O)[C@H](C)N)c(C)c34)ccc2[nH]1 [Brivanib (alaninate)] (10 µM) 0
CCC(F)(F)c1cc(N2CCC(S(C)(=O)=O)CC2)nc2sc(C(N)=O)c(N)c12 (10 µM) 0
NC(=O)c1c(NC(=O)C2CC2)sc2c1CCCC2 (10 µM) 0
CC(C)=CCC[C@](C)(O[C@@H]1O[C@H](CO[C@@H]2O[C@H](CO)[C@@H](O)[C@H](O)[C@H]2O)[C@@H](O)[C@H](O)[C@H]1O)[C@H]1CC[C@]2(C)[C@@H]1[C@H](O)C[C@@H]1[C@@]3(C)CC[C@H](O[C@@H]4O[C@H](CO)[C@@H](O)[C@H](O)[C@H]4O[C@@H]4O[C@H](CO)[C@@H](O)[C@H](O)[C@H]4O)C(C)(C)[C@@H]3CC[C@]12C [Ginsenoside Rb1] (10 µM) 0
